Results published in PMC10593810.

What was measured:
[1] = target: T1, FLAG-YT521-B (Drosophila) (UniProt Q9VZQ1); assay: co-IP; HEK293T co-transfected with a FLAG-tagged and a Myc-tagged plasmid, 48 h; lysis buffer 50 mM Tris-HCl pH 7.5, 150 mM NaCl, 0.5% Triton X-100, 1 mM PMSF; precipitated on anti-FLAG M2 gel at 4 °C; western blotting
T1 sequence: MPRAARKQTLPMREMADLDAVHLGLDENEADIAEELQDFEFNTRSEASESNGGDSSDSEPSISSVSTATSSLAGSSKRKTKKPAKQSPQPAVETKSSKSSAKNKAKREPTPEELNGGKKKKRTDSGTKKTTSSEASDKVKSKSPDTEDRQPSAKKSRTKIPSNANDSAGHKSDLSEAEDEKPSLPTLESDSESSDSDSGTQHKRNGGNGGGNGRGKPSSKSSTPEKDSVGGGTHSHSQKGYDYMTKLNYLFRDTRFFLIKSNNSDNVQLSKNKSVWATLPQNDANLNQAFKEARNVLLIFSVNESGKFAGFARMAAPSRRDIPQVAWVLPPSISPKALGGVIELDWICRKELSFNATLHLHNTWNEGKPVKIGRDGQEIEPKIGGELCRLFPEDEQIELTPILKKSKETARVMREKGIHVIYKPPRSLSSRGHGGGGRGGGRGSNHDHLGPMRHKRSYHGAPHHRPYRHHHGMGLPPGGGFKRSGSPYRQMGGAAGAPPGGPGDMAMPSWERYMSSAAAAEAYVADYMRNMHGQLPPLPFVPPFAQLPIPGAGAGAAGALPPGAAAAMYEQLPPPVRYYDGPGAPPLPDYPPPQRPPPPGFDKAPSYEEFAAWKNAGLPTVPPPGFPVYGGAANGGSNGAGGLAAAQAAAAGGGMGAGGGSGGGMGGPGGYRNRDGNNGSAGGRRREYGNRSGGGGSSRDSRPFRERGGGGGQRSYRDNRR

[2] = target: T2, FLAG-Mettl14 (Drosophila) (UniProt Q9VLP7); assay: as above
T2 sequence: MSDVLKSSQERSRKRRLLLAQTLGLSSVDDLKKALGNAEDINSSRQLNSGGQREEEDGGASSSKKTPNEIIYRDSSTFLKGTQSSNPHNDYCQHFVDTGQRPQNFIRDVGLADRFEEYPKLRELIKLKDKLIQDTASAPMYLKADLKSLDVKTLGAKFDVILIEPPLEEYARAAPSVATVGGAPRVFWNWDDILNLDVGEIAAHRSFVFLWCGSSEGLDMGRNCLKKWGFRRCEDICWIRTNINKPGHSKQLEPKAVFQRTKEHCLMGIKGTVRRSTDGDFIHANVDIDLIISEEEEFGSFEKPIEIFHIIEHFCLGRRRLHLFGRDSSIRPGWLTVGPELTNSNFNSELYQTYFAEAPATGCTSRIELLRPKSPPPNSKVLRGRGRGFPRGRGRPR

[3] = target: FLAG-BuGZ (FLAG-tagged BuGZ protein-trap reporter line, midgut) (Drosophila); assay: co-IP; BuGZ-FLAG fly midguts (young and aged), lysed in 1% PBST; FLAG-BuGZ precipitated on anti-FLAG M2 gel at 4 °C; western blotting for endogenous Ime4 or Mettl14; same level of precipitated FLAG-BuGZ loaded

- binding [1]: no binding
- binding [2]: binds
Molecule: Myc-BuGZ^FL (Drosophila)

- binding [3]: binds
B1: endogenous Mettl14 (Drosophila midgut) (protein, UniProt Q9VLP7 1-397)
chain: T2 sequence

Results are given in words; binding and its absence hold for the method and conditions named. Binding seen in cells or lysates may run through a third protein. For part of these data: Binding calls can cover weak binding; strength is not graded here. For part of these data: Tags and fused reporters may be left off the sequences shown. One block for each molecule: values may come before it.
